Laboratory results as given in publication PMC12629859.
Results are given in words; binding and its absence hold for the method and conditions named. In cells and extracts the contact can be indirect. A result given as binding can be weak or reduced; the word gives no strength. Blank lines part the entries; values can stand above or below the substance they belong to.

Chains of the proteins cited; added tags and fusions are not shown. Lines headed by an entry give the natural chain unless they say otherwise; changes in a name come on top. Residues count along the entry.
UniProt P07711: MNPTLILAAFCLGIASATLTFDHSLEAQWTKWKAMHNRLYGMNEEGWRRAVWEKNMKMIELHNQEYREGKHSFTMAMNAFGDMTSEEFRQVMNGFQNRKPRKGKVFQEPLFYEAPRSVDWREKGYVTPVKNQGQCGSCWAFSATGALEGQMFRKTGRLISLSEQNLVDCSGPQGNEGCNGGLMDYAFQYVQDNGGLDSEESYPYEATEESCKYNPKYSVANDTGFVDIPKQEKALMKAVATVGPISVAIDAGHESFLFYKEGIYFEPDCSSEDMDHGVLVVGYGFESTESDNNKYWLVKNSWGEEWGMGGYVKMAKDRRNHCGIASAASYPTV
USP20-UCH domain (Q9Y2K6, residues 145-647): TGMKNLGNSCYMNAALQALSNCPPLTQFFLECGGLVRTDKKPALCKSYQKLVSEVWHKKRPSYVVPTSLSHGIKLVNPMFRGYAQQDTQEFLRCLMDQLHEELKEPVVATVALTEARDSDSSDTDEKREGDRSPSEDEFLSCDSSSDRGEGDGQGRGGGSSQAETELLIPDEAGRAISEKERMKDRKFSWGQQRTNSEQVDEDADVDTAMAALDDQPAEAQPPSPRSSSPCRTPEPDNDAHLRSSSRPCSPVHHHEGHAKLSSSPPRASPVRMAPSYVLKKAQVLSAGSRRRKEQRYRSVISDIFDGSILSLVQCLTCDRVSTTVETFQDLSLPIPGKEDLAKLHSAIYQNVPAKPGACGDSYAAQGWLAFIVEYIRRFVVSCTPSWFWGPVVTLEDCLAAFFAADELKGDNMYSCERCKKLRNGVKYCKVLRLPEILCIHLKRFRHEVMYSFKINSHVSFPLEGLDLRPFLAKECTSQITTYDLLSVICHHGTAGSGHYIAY
UniProt Q9UNE7: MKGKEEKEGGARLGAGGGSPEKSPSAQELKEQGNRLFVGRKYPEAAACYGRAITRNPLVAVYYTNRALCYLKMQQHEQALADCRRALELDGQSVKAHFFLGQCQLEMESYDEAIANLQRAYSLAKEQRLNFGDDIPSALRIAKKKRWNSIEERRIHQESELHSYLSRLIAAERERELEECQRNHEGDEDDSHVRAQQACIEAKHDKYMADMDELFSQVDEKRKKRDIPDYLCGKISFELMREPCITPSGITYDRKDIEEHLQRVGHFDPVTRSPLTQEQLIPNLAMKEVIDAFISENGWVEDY

How the values were obtained:
[1] = target: Cathepsin L (CTSL), endogenous (human (endogenous in FaDu and HN8)) (UniProt P07711); assay: co-IP; HN8 and FaDu cells transfected with Flag-STUB1 and HA-USP20; endogenous CTSL
[2] = target: USP20-UCH domain (amino acids 145-647) (UniProt Q9Y2K6); assay: co-IP; HEK293T cells co-transfected with Flag-CTSL and HA-tagged USP14, USP12 (48 hours) or USP20 constructs; for the USP20 constructs IP with anti-HA and blot with anti-Flag
[3] = target: Cathepsin L (CTSL), endogenous (human (endogenous in FaDu and HN8)) (UniProt P07711); assay: co-IP; total lysates of HN8 cells with or without USP20 knockdown, or FaDu cells with or without USP20 overexpression; IP with anti-CTSL or anti-STUB1; cells treated with MG132
[4] = target: Cathepsin L (CTSL), endogenous (human (endogenous in FaDu and HN8)) (UniProt P07711); assay: co-IP; endogenous proteins in FaDu and HN8 lysates; IP lysis buffer, overnight at 4°C with the indicated antibodies, Western blot

binding [1]: binds
Substance: Flag-STUB1 (HN8 and FaDu cells) (from UniProt Q9UNE7 1-303) (enzyme)

binding [2]: binds
Substance: Full-length Flag-CTSL (HEK293T cells) (from UniProt P07711)

binding [3]: binds
Substance: STUB1 (carboxyl terminus of Hsc70-interacting protein), endogenous (from UniProt Q9UNE7 1-303) (enzyme)

binding [4]: binds
Substance: Ubiquitin-specific protease 20 (USP20), endogenous (from UniProt Q9Y2K6 1-914) (enzyme)
